# Results as given in PubChem BioAssay AID1347075 (National Center for Advancing Translational Sciences (NCATS), 2019).
# Several values for one entry are separate records, joined by “and”; a condition that tells them apart may be missing. Equal values may be shown once. About 5,500 (1.4%) of roughly 400,000 compounds were called active. The shares of active, inactive and inconclusive entries below differ from those in the screen. The call rests on the fitted dose curve; in most records, active means well fitted cell-killing curve with a large enough effect; inconclusive means small, poorly fitted or top-dose-only effect, or effect the other way; inactive means flat fitted curve, though single readings scatter. Where the call is inconclusive, the potency comes from a doubtful curve fit.
# Experiment: qHTS assay for MDR1-selective chemotherapeutics: Primary screen using the parental adenocarcinoma cell KB-3-1; further: nearly all actives have a fitted effect of over 60% in size
# Conditions: KB-3-1 viability, CellTiter-Glo ATP luminescence, 72 h; activity change, negative = cytotoxic: at 46.1 µM (top of the series)
# Procedure, shortened: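 Parental KB-3-1 viability, qHTS format: 72 h compound exposure, 37 °C; CellTiter-Glo; media-only wells and DMSO plates as controls; concentration-effect fits on corrected data.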
# On the % scale 0 is the no-effect control and ±100 the full control effect; potency means the concentration at half of the fitted maximal effect.
SMILES,Potency,"activity change, negative = cytotoxic"
CCc1cccc(CC)c1NC(=O)C1SC(=Nc2ccccc2C)C(c2nc3ccccc3s2)=C1N (stereo unspecified),"inconclusive: 18.4 µM [cytotoxic, single point]",–
Cc1nc2ccccn2c1C(=O)N/N=C/c1cc(C)n(-c2ccc(Br)cc2)c1C,active: 20.6 µM,–
Nc1c2ccccc2nc2ccccc12,active: 5.8 µM and active: 5.17 µM,–
Cc1ccc(NC(=O)c2nc[nH]c2C(=O)N[C@H](C)c2ccccc2)cc1,"inconclusive: 18.4 µM [cytotoxic, single point]",–
Cc1ccc(NC(=S)/C(C#N)=C2/Nc3ccccc3S2)cc1,"inconclusive: 29.1 µM [cytotoxic, single point]",–
N#Cc1c(N)sc2c1CCCCCC2,"inconclusive: 25.9 µM [cytotoxic, single point]",–
FC(F)Oc1ccc(NC(=S)NCCc2ccccn2)cc1,–,inactive: -0.0318%
Cc1cc(C)cc(C(=O)N2CC(=O)Nc3ccccc32)c1,"inconclusive: 0.58 µM [cytotoxic, full curve]",–
Cc1ccc(CN2C3=NCCCN3c3ccccc32)cc1,"inconclusive: 25.9 µM [cytotoxic, single point]",–
COC(=O)c1cc(C(=O)OC)cc(N2C(=O)CC(NNC(=O)c3ccccc3Cl)C2=O)c1 (stereo unspecified),"inconclusive: 13 µM [rising, partial curve, poor fit]",–
CC1CCC(C(=O)NC(C(=O)OCC(=O)c2ccc(Br)cc2)C(C)C)CC1 (stereo unspecified),–,inactive: -4.71%
COC1C(CO)OC(n2c3c(Cl)cccc3c3c4c(c5c6cccc(Cl)c6[nH]c5c32)C(=O)NC4=O)C(O)C1O (stereo unspecified),active: 8.2 µM,–
Cc1[nH]nc(-c2ccc(OCc3cnn(-c4ccccc4)c3)cc2O)c1Oc1ccc(F)cc1,"inconclusive: 25.9 µM [cytotoxic, partial curve, poor fit]",–
COc1ccc(O)c(C(=O)c2cc(C(=O)NCCc3ccccc3)c(=O)n(CCc3ccccc3)c2)c1,–,inactive: -29%
COc1cc(OC)c(-c2oc3ccccc3c(=O)c2O)c(OC)c1,active: 8.2 µM,–
Cc1ccc(-c2ccc(/C=N/NC(=O)CN3CCOCC3)o2)cc1[N+](=O)[O-],–,inconclusive: -33% [cytotoxic]
O=C(CNC(=O)C1CC(=O)N(c2cccc3ccccc23)C1)Nc1ccccc1Br (stereo unspecified),–,inactive: -6.98%
O=C(Nc1nc2ccccc2[nH]1)C1CC1,"inconclusive: 20.6 µM [cytotoxic, partial curve, poor fit]",–
Cc1csc2nc(-c3ccc(NS(=O)(=O)c4cc(F)ccc4F)cc3)cn12,–,inactive: -2.32%
CC(C)N=C(N)N=C(N)Nc1ccc(Cl)cc1,–,inactive: -8.17%
Cc1ccc(-c2nn3c(C)nnc3c3ccccc23)cc1S(=O)(=O)NCc1ccco1,–,inactive: -6.87%
CC(=O)NC(c1cccc(F)c1)c1nc(/C=C/c2ccccc2)cs1 (stereo unspecified),–,inactive: -14.2%
Cc1ccc(CNC(=O)CNS(=O)(=O)c2ccc(Br)s2)cc1,–,inactive: -1.52%

SMILES,Potency,"activity change, negative = cytotoxic"
Cc1ccc(OC(=O)CCNC(=O)c2ccccc2Cl)c(Br)c1,–,inactive: 1.77%
COc1ccc(-n2cnc(N)c2C(=O)c2cccc([N+](=O)[O-])c2)cc1,"inconclusive: 23.1 µM [cytotoxic, single point]",–
O=C(CCSc1nc(-c2ccccc2)c(-c2ccccc2)o1)N1CCCCC1,"inconclusive: 20.6 µM [cytotoxic, single point]",–
O=C(CNC(=O)c1ccco1)N/N=C/c1cc(Br)ccc1O,"inconclusive: 11.6 µM [cytotoxic, partial curve]",–
O[C@H]1CN(Cc2cccs2)[C@@H](c2ccccc2)C[C@@H]1n1cc(-c2ccc(F)cc2)nn1,–,inactive: -7.88%
Clc1cccc(-c2cc3nc4c(c(N5CCN(c6cnccn6)CC5)n3n2)CCCC4)c1,"inconclusive: 29.1 µM [cytotoxic, single point]",–
CCc1cc(-c2nnn(CCC3COCCO3)c2CC)cc(CC)c1-c1cn(Cc2ccc3ccccc3c2)nn1 (stereo unspecified),"inconclusive: 29.1 µM [cytotoxic, single point]",–
Cc1cc(C)nc(N2CCC(C(=O)NCCc3ccc(F)cc3)CC2)n1,–,inactive: -4.12%
Cc1ccc2nc(/C=C/c3ccc(N(C)C)cc3)ccc2c1,–,inactive: -10.5%
Cc1sc(NC(=O)c2ccco2)c(CN2CCN(Cc3ccccc3)CC2)c1C,"inconclusive: 16.4 µM [cytotoxic, single point]",–
CN(C)c1nc(N/N=C/c2c[nH]c3ccccc23)nc(N2CCOCC2)n1,–,inactive: -13.9%
O=C(CNC(=O)c1ccc(S(=O)(=O)N2CCCC2)cc1)N/N=C/c1ccc(Cl)cc1Cl,"inconclusive: 18.4 µM [cytotoxic, single point]",–
Cc1ccc([C@H]2C[C@@H](O)[C@H](n3cc(-c4ccc(F)cc4)nn3)CN2C(=O)C2CCCCC2)cc1,"inconclusive: 29.1 µM [cytotoxic, single point]",–
COc1ccc2cc(-c3cc(C(=O)O)c4ccccc4n3)ccc2c1,active: 14.6 µM,–
COc1ccc(-c2n[nH]c3c2cnc2ccc(F)cc23)cc1,–,inactive: 0.781%
COc1ccc(N2CCN(C(=O)NC34CC5CC(CC(C5)C3)C4)CC2)cc1,–,inactive: 5.06%
CCN1C(=O)[C@@H]2[C@@H](c3ccc(-c4cccc(Cl)c4)c(OC)c3)N3CCCC[C@@]3(C(=O)OC)[C@@H]2C1=O,"inconclusive: 18.4 µM [cytotoxic, single point]",–
O=C(COc1ccc(-c2nnc(N3CCCCC3)c3ccccc23)cc1)N1CCCCC1,"inconclusive: 20.6 µM [cytotoxic, partial curve]",–
O=C(Cn1cc(COc2ccc(C(=O)c3ccccc3)cc2)nn1)c1ccc(O)cc1,"inconclusive: 29.1 µM [cytotoxic, single point]",–
C[C@@H]1CCCCO[C@H](CN(C)C(=O)Nc2ccc3c(c2)OCO3)[C@@H](C)CN([C@H](C)CO)C(=O)c2cc(NS(=O)(=O)c3ccc(F)cc3)ccc2O1,"inconclusive: 32.6 µM [cytotoxic, single point]",–
Cn1c(N)c(N2CCN(c3ccccc3)CC2)c(=O)[nH]c1=O,–,inactive: 2.64%
CCc1nc2c(OCc3cccc(Cl)c3)cccn2c1N(C)C(=O)c1ccncc1,–,inactive: 0.687%
COc1cc(/C=C2/SC(=S)NC2=O)ccc1OS(=O)(=O)c1ccc(C)cc1,"inconclusive: 29.1 µM [cytotoxic, single point]",–

# As entered above:
# Potency, `O=C(CNC(=O)c1ccc(S(=O)(=O)N2CCCC2)cc1)N/N=C/c1ccc(Cl)cc1Cl` is entered as inconclusive: 18.4 µM [cytotoxic, single point]
# activity change, negative = cytotoxic, `COc1ccc(-c2n[nH]c3c2cnc2ccc(F)cc23)cc1` is entered as inactive: 0.781%
# Potency, `COc1ccc(-n2cnc(N)c2C(=O)c2cccc([N+](=O)[O-])c2)cc1` is entered as inconclusive: 23.1 µM [cytotoxic, single point]
